No constants are given. Whether binding was seen depends on the method and setting. In cells and extracts the contact can be indirect. Binding calls can cover weak binding; strength is not graded here.
Molecular target: PyERF3-CLuc (pear (Pyrus))
Assay: split reporter; luciferase complementation in N. benthamiana leaves; PyMYB114-Nluc and PyERF3-Cluc coinfiltrated with increasing PyERF4.1/PyERF4.2-pSAK277

The chains behind the UniProt entries cited, without tags or fusion partners. Where a name states a change or a piece, a line headed by the entry shows the natural chain unless it says otherwise.
UniProt A0A286S6L1: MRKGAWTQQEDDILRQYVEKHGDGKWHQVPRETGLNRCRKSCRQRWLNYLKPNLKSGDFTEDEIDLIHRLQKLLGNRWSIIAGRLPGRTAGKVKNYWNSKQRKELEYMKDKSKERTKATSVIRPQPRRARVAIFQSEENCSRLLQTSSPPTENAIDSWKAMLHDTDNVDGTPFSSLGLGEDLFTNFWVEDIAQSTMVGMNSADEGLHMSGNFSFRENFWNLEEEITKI

binding: binds
Substance: PyMYB114-Nluc (from UniProt A0A286S6L1)

From PMC10315276
